PubChem BioAssay AID504793, Drosophila RNAi Screening Center, 2011
Test: 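Knock-downs allowing continued mitosis even though DNA is damaged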 (primary screen). Cells: Drosophila S2R+ cells. Reagents: long dsRNA against Drosophila genes, about 0.25 µg dsRNA per well. Time to read-out: 4 days of dsRNA, then 4 hours of drug before read-out. Challenge: doxorubicin 0.5 µM for 4 hours to cause double-strand breaks, in cells also given a low, harmless dose of dsRNA against nbs to sensitise the assay. Measured: 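Per-well count of mitotic cells stained for phospho-histone H3 after doxorubicin exposure, used as mitotic index; counts are raw and not normalised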. Reading the numbers: mitotic cells: higher = more cells in mitosis, weaker G2 arrest. Rule for the call: 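Genes are called active only when high mitotic counts were reproduced with independent dsRNAs and mitosis was checked for delay without damage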. Meaning of the calls: active = confirmed in follow-up tests; inactive = not confirmed.
The screen tested about 23,000 reagents; below is a random part of those with a known target gene and a result. Of all reagents, 62 (0.27%) got an active call. 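Calls come from follow-up tests whose scores are not deposited, so confirmed genes may have low counts here; counts are not normalised per plate.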 Raw values are not corrected between plates. The numbers tell different reagents against one gene apart. A plus sign joins genes that one reagent is predicted to hit.

parvin #1 → mitotic cells, replicate 1: 5; call: inactive
parvin #2 → mitotic cells, replicate 1: 6; call: inactive
tplus3a + tplus3b → mitotic cells, replicate 1: 7; call: inactive
Epg5 (ectopic P-granules autophagy protein 5) → mitotic cells, replicate 1: 5; call: inactive
rdog (red dog mine) #1 → mitotic cells, replicate 1: 2; call: inactive
rdog (red dog mine) #2 → mitotic cells, replicate 1: 7; call: inactive
Nt5a (5' nucleotidase A) → mitotic cells, replicate 1: 9; call: inactive
CG4520 #1 → mitotic cells, replicate 1: 2; call: inactive
CG4520 #2 → mitotic cells, replicate 1: 10; call: inactive
CG13532 → mitotic cells, replicate 1: 5; call: inactive
Ranbp16 → mitotic cells, replicate 1: 12; call: inactive
CG11286 → mitotic cells, replicate 1: 5; call: inactive
Marf1 (Meiosis regulator and mRNA stability factor 1) #1 → mitotic cells, replicate 1: 4; call: inactive
Marf1 (Meiosis regulator and mRNA stability factor 1) #2 → mitotic cells, replicate 1: 5; call: inactive
CG2528 → mitotic cells, replicate 1: 5; call: inactive
Aldh (Aldehyde dehydrogenase) → mitotic cells, replicate 1: 4; call: inactive
spdi (split discs) #1 → mitotic cells, replicate 1: 10; call: inactive
spdi (split discs) #2 → mitotic cells, replicate 1: 9; call: inactive
Pvr (PDGF- and VEGF-receptor related) #1 → mitotic cells, replicate 1: 6; call: inactive
Pvr (PDGF- and VEGF-receptor related) #2 → mitotic cells, replicate 1: 20; call: inactive
CG5435 → mitotic cells, replicate 1: 5; call: inactive
beat-Ib (beaten path Ib) → mitotic cells, replicate 1: 2; call: inactive
CG33514 #1 → mitotic cells, replicate 1: 8; call: inactive
CG33514 #2 → mitotic cells, replicate 1: 6; call: inactive
CG33514 #3 → mitotic cells, replicate 1: 7; call: inactive
CG33469 → mitotic cells, replicate 1: 11; call: inactive
Mettl5 + CG42374 → mitotic cells, replicate 1: 7; call: inactive
CG32318 + Klp61F + Psf1 → mitotic cells, replicate 1: 145; call: inactive
CG17190 → mitotic cells, replicate 1: 9; call: inactive
CG13733 → mitotic cells, replicate 1: 6; call: inactive
CG15576 → mitotic cells, replicate 1: 13; call: inactive
Galphaq (G protein alpha subunit q) #1 → mitotic cells, replicate 1: 5; call: inactive
Galphaq (G protein alpha subunit q) #2 → mitotic cells, replicate 1: 17; call: inactive
Ugt49B1 (UDP-glycosyltransferase family 49 member B1) #1 → mitotic cells, replicate 1: 6; call: inactive
Ugt49B1 (UDP-glycosyltransferase family 49 member B1) #2 → mitotic cells, replicate 1: 10; call: inactive
CR31958 (pseudo) #1 → mitotic cells, replicate 1: 1; call: inactive
CR31958 (pseudo) #2 → mitotic cells, replicate 1: 13; call: inactive
CR31958 (pseudo) #3 → mitotic cells, replicate 1: 5; call: inactive
dpr15 (defective proboscis extension response 15) #1 → mitotic cells, replicate 1: 7; call: inactive
dpr15 (defective proboscis extension response 15) #2 → mitotic cells, replicate 1: 1; call: inactive
dpr15 (defective proboscis extension response 15) #3 → mitotic cells, replicate 1: 6; call: inactive
CG5273 → mitotic cells, replicate 1: 11; call: inactive
Gr32a (Gustatory receptor 32a) → mitotic cells, replicate 1: 5; call: inactive

3 entries from above, ordered by “mitotic cells, replicate 1”, low to high:
CG33514 #2 → mitotic cells, replicate 1: 6; call: inactive
CG33514 #3 → mitotic cells, replicate 1: 7; call: inactive
CG33469 → mitotic cells, replicate 1: 11; call: inactive
